One sequence from paper doi:10.1101/2020.12.15.422995 can be followed below.

For at least one entry, the source does not settle the construct or the ends of the probe. Negatives hold for the conditions tested. At least one verdict rests on a figure or table, not on a statement of the authors. Tags and fusion partners may be left off the protein sequences shown.

This data set addresses T1, Fur (PerR homolog), 17.4 kDa (Bacillus subtilis) (UniProt P54574).
T1 sequence (looked up, limits assumed): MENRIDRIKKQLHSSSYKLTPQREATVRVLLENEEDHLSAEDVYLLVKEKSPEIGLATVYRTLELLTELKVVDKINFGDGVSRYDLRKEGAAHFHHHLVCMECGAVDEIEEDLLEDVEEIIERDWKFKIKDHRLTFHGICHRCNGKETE
Kind of data set: EMSA. Conditions: EDTA.

As for “CCTGATAGGATGATGGATAATTAAGGCTTTTATCCACTTTTTACTGACATTTTG (double strand) [54-bp degenerate sloR promoter (Deg_sloR_CC1)]”, the binding result is given as “no binding”.
